# According to patent US11261232B2, “TNFRSF14 / HVEM proteins and methods of use thereof” (MEMORIAL SLOAN KETTERING CANCER CENTER, priority 2015, dated 2022):
# At least one compound was matched to its structure with a doubt left.
# Test system: DOHH2 cells
# Assay: BTK, SYK and ERK activation in anti-IgG-stimulated DOHH2 cells
# Assay type: cell-based, human
# Settings: ibrutinib 10nmM as printed
# Description: FIG. 7A-H. The solHVEM (either Leu39-Va1202 or Pro37-Va1202) protein restores tumor suppressive effects of HVEM.
# FIG. 14A-E. Effect of solHVEM (either Leu39-Va1202 or Pro37-Va1202) on murine and human FL B cells. FIG. 14A and FIG. 14B, Quantification of pSYK levels in DOHH2 lymphoma cells that were stimulated with anti-IgG in the presence or absence of Pro37-Va1202 solHVEM (5 μg/ml) (* indicated p<0.01); representative FACS measurement in (FIG. 14B) FIG. 14C, FACS analysis of BTLA expression in a panel of lymphoma lines including murine myc/bc12 lymphomas and human lines (DOHH2, Su-DHL6, Granta, Ly10); FIG. 14D, representative pictures of tumors from mice; FIG. 14E, tumor weight of mouse tumors (n=3, p<0.01).
# FIG. 15A-B. sTNFRSF14 opposes B cell receptor signaling in lymphoma B cells by decreasing P-BTK. […] The cells were subsequently fixed and permeabilized and probed for pBTK expression using phospo-flow antibodies and analyzed on BD Fortessa. […] FIG. 15B, Quantification of mean fluorescence intensity of phospho-BTK after treatment with vehicle or drug.
# FIG. 16A-B. sTNFRSF14 opposes B-cell receptor signaling in lymphoma B cells by decreasing P-SYK. […] The cells were subsequently fixed and permeabilized and probed for pSYK expression using phospo-flow antibodies and analyzed on a BD Fortessa. […]
structure (smiles),measurement,value
"C=CC(=O)N1CCC[C@@H](n2nc(-c3ccc(Oc4ccccc4)cc3)c3c(N)ncnc32)C1 [ibrutinib, reference compound]",activation (phosphorylation) of BTK,ibrutinib-sensitive activation
